# According to PubChem BioAssay AID540276 (National Center for Advancing Translational Sciences (NCATS), 2011):
# Screen size: about 300,000 compounds; about 5,400 (1.8%) were called active. Inconclusive results, whose numbers are uncertain, are shown with a selection of clear calls. Calls follow the shape of the full dose curve; tested in HEK293 cells. Where the call is inconclusive, the potency comes from a doubtful curve fit.
# Experiment: qHTS for inhibitors of binding or entry into cells for Marburg Virus
# Settings: Marburg virus pseudotyped entry inhibition, cell reporter; series mostly up to 37.8 µM
# Potency is read from the fitted curve at half-maximal effect.
row,SMILES,Potency
1,COc1ccc(-c2nn(C)c3sc(C(=O)NCCN(C)C)cc23)cc1OC,"inconclusive: 12.6 µM [inhibitor, partial curve, poor fit]"
2,CCOC(=O)C1(CCOc2ccccc2)CCN(Cc2cnc(C)s2)CC1,"inconclusive: 25.1 µM [inhibitor, single point]"
3,CCCCCC(C(=O)O)C(C)CC(=O)NC1CCCCC1 (centres undefined),inactive
4,Cc1cc(C)cc(OCC(=O)O/N=C(\N)c2ccccc2Cl)c1,inactive
5,Cn1ncc2c(=S)nc(Cl)[nH]c21,"inconclusive: 25.1 µM [inhibitor, single point]"
6,Cc1ccc(NC(=O)C2CCC(=O)N2C(=O)OCc2ccccc2)cc1 (centres undefined),"inconclusive: 1.26 µM [inhibitor, full curve, poor fit]"
7,c1ccc(CC2CCN(C3=Nc4cccc5cccc3c45)CC2)cc1,active: 16.4 µM
8,CC(=NC1CCCC1)c1c(C)[nH]n(-c2nc3ccccc3s2)c1=O,"inconclusive: 8.91 µM [inhibitor, partial curve, poor fit]"
9,CCN1CCc2c(C#N)c(N3CCCCC3)nc(NCc3ccccc3)c2C1,"inconclusive: 29.1 µM [inhibitor, single point]"
10,O=C(c1ccccc1)N1CCN(c2ccccc2)CC1,"inconclusive: 8.91 µM [activator, single point]"
11,O=C(CCn1cccc1)NCc1ccccc1,inactive
12,CCOC(=O)c1c(Nc2ccc(C)c(C)c2)nnc(-c2ccccc2)c1-c1ccccc1,inactive
13,COc1cccc2sc(N(CCCN(C)C)C(=O)c3ccc(S(=O)(=O)N4CCc5ccccc5C4)cc3)nc12,"inconclusive: 3.98 µM [inhibitor, partial curve, poor fit]"
14,CC(Cc1ccccc1)NC(=S)CN1CCCC1=S (centres undefined),"inconclusive: 1.41 µM [inhibitor, partial curve, poor fit]"
15,CCOC(=O)c1ccc(CN(Cc2ccccc2)S(=O)(=O)c2cccc([N+](=O)[O-])c2)cc1,"inconclusive: 20 µM [inhibitor, single point]"
16,CCCCn1c(O)c(/C=N/NC(=O)c2ccncc2)c(=O)[nH]c1=S,"inconclusive: 7.94 µM [inhibitor, partial curve, poor fit]"
17,CCC1CCCCN1CCCNC(=O)c1ccc2c(c1)c(C)c(C)n2CC (centres undefined),"inconclusive: 8.91 µM [inhibitor, partial curve, poor fit]"
18,CC(=O)N(c1ccc(Cl)cc1)c1nc(C)cc(C)c1C#N,inactive
19,COc1ccc(NC(=O)CN(C)CC(=O)Nc2cccc(S(=O)(=O)N(C)c3ccccc3)c2)cc1,"inconclusive: 8.91 µM [inhibitor, single point]"
20,CCCCCC(=O)N/N=C(\C)c1ccc(N2CCCCC2)cc1,"inconclusive: 0.891 µM [inhibitor, partial curve, poor fit]"
21,Cc1ccc(C)c(NC(=O)c2ccccc2NS(=O)(=O)c2cc([N+](=O)[O-])ccc2C)c1,active: 4.11 µM
22,COc1ccc(/C=N/NC(=O)CC(=O)NCCc2ccccc2)cc1OC,"inconclusive: 0.326 µM [inhibitor, full curve, poor fit]"
23,CC(=O)Nc1ccc(C(=O)Nc2cc(C)on2)cc1,inactive

row,SMILES,Potency
1,CCCn1c(CCNC(=O)c2ccco2)nc2ccccc21,"inconclusive: 14.1 µM [inhibitor, single point]"
2,O=C(c1ccc([N+](=O)[O-])cc1)N1CCSC1c1ccccc1Cl (centres undefined),inactive
3,COc1ccc(S(=O)(=O)N2CCOCC2)cc1NC(=O)CCCOc1ccc(Cl)cc1C,"inconclusive: 28.2 µM [inhibitor, single point]"
4,CCCCN(CCCC)C(=O)C1CCN(S(=O)(=O)c2cccc3nsnc23)CC1,"inconclusive: 6.31 µM [inhibitor, partial curve, poor fit]"
5,O=C(Nc1ccc(Cl)cc1C(F)(F)F)c1ccc(Cl)cc1,inactive
6,O=C1CN=C(c2ccc(Cl)cc2)c2oc3ccccc3c2N1,"inconclusive: 25.1 µM [inhibitor, partial curve, poor fit]"
7,O=c1[nH]c(=O)n(CCC2=CCCCC2)c(O)c1C=NCc1cccnc1,"inconclusive: 0.891 µM [activator, single point]"
8,COc1ccc(CCNC(=O)CNC(=O)c2nn(-c3ccc(OC)c(OC)c3)c(=O)c3ccccc23)cc1OC,"inconclusive: 35.5 µM [inhibitor, single point]"
9,COc1cccc(-n2c(-c3cccc(F)c3)nc3c(cnn3-c3ccc(C)cc3)c2=O)c1,"inconclusive: 35.5 µM [inhibitor, single point]"
10,CCc1ccc(S(=O)(=O)/N=C2\C=C(Nc3cccc(C(=O)O)c3)C(=O)c3ccccc32)cc1,inactive
11,C/C(=N/N1CCN(c2ccccn2)CC1)c1ccc([N+](=O)[O-])cc1,"inconclusive: 2.59 µM [inhibitor, full curve]"
12,CCN(CC)C(=O)CSc1nc2ccc(NC(=O)CSc3nnc(COc4ccccc4C)n3C)cc2s1,inactive
13,CC(C)=NO[C@@H](C)CN1CCCc2nc(C)c(C)cc21,inactive
14,CC(NC(=O)CCCC1CCCCC1)c1ccc(S(N)(=O)=O)cc1 (centres undefined),"inconclusive: 6.31 µM [activator, partial curve, poor fit]"
15,COC(=O)c1ccc(Oc2ccc(C(C)(C)C)cc2)c([N+](=O)[O-])c1,inactive
16,Cc1ccccc1OCC(=O)NCC1CCCO1 (centres undefined),inactive
17,CC(C)(C)c1ccc(-c2nc(SCC(=O)Nc3ccc(Cl)cc3)[nH]c(=O)c2C#N)cc1,"inconclusive: 25.1 µM [activator, single point]"
18,CC(Sc1nc(N)c2c3c(sc2n1)CSC(C)(C)C3)C(=O)Nc1ccccc1 (centres undefined),"inconclusive: 35.5 µM [inhibitor, partial curve, poor fit]"
19,COc1nc(-c2ccccc2)ccc1-c1noc(-c2ccco2)n1,inactive
20,Cc1nn2c(NCCN(C)C)c3c(nc2c1-c1ccccc1)CCCC3,active: 10 µM
21,O=C(NN=Cc1ccccc1)c1ccccc1,"inconclusive: 0.562 µM [activator, full curve, poor fit]"
22,CCCCOc1cccc(C(=O)N(Cc2cccs2)c2ccc(OC)cc2)c1,"inconclusive: 25.1 µM [inhibitor, single point]"
23,C[C@@H](C(=O)N=c1sc2ccccc2n1C)N1C(=O)C2CC=CCC2C1=O (some centres undefined),inactive

row,SMILES,Potency
1,CCCCn1c(SCC(=O)NCc2ccco2)nc2ccccc2c1=O,inactive
2,CCN(c1ccccc1)S(=O)(=O)c1ccc(OC)c(N=N/C(C(=O)Nc2ccccc2)=C(/C)O)c1,"inconclusive: 6.31 µM [inhibitor, single point]"
3,O=C(NC1CCCCC1)NC1CCN(C(=S)NCc2ccco2)CC1,"inconclusive: 10.3 µM [activator, partial curve, poor fit]"
4,CCC(C)(C)n1nnnc1C(C(C)C)N(Cc1ccco1)Cc1cc2cc3c(cc2[nH]c1=O)OCO3 (centres undefined),active: 16.4 µM
5,CC1CCCCN1S(=O)(=O)c1ccc2c(c1)oc(=O)n2CC(=O)O (centres undefined),"inconclusive: 1.58 µM [activator, partial curve, poor fit]"
6,CC(=O)OCC(=O)Nc1ccc([N+](=O)[O-])cc1Cl,"inconclusive: 1.78 µM [inhibitor, partial curve, poor fit]"
7,CCN(CC)CCNC(=O)Nc1ccc2c(c1)N(Cc1ccccc1)C(=O)c1ccccc1S2,"inconclusive: 12.6 µM [inhibitor, partial curve, poor fit]"
8,CC1C/C(=C/c2cccn2C)C(=O)/C(=C/c2cccn2C)C1 (centres undefined),"inconclusive: 14.6 µM [inhibitor, partial curve, poor fit]"
9,COC(=O)c1coc(-c2ccc(OC)cc2)c1C(=O)OC,"inconclusive: 3.16 µM [activator, single point]"
10,CN=C(C)c1c(O)c2ccccc2oc1=O,inactive
11,CCN1C(=O)/C(=C/C=C2\C=CN(CC)c3ccccc32)SC1=S,"inconclusive: 0.501 µM [activator, full curve]"
12,CC(Sc1nccn1C)C(=O)Nc1ccc(C(N)=O)cc1 (centres undefined),"inconclusive: 7.08 µM [activator, partial curve]"
13,CCN(CC)c1sc(S(=O)(=O)c2ccccc2)nc1S(=O)(=O)c1ccc(C)cc1,"inconclusive: 31.6 µM [inhibitor, partial curve, poor fit]"
14,Cc1cccc2sc(NC(=O)c3ccc(OCC4CCCO4)cc3)nc12 (centres undefined),"inconclusive: 1.41 µM [inhibitor, partial curve, poor fit]"
15,COCCCN1C(=O)c2ccc(C(=O)Nc3cccc(OC)c3)cc2C1=O,inactive
16,COc1ccc(C(=O)NCCS(=O)(=O)NCc2ccco2)cc1,inactive
17,Cc1cc(C(=O)Nc2ccc(S(=O)(=O)Nc3nccs3)cc2)c(C)o1,"inconclusive: 6.51 µM [activator, partial curve]"
18,CCCCCCCCNCCS(=O)(=O)NN1CCOCC1,"inconclusive: 0.0141 µM [inhibitor, full curve, poor fit]"
19,CCN(CCCNC(=O)c1cc2c(Cl)nc3ccccc3c2s1)Cc1ccccc1,"inconclusive: 35.5 µM [inhibitor, single point]"
20,Cc1ccc(CSc2n[nH]c(N)n2)cc1,inactive
21,COc1ccc(-c2noc(Cc3cccs3)n2)cc1,"inconclusive: 2.24 µM [activator, partial curve, poor fit]"
22,Cc1ccc(C(=O)NNc2ncnc3c2cnn3C)cc1,inactive
23,O=C(CCN1C(=O)/C(=C\c2ccccc2Cl)SC1=S)Nc1cccnc1,inactive

# Taken from the entries so far, 18 compounds:
row,SMILES,Potency
5,O=C(Nc1ccc(Cl)cc1C(F)(F)F)c1ccc(Cl)cc1,inactive
6,O=C1CN=C(c2ccc(Cl)cc2)c2oc3ccccc3c2N1,"inconclusive: 25.1 µM [inhibitor, partial curve, poor fit]"
7,O=c1[nH]c(=O)n(CCC2=CCCCC2)c(O)c1C=NCc1cccnc1,"inconclusive: 0.891 µM [activator, single point]"
8,COc1ccc(CCNC(=O)CNC(=O)c2nn(-c3ccc(OC)c(OC)c3)c(=O)c3ccccc23)cc1OC,"inconclusive: 35.5 µM [inhibitor, single point]"
9,COc1cccc(-n2c(-c3cccc(F)c3)nc3c(cnn3-c3ccc(C)cc3)c2=O)c1,"inconclusive: 35.5 µM [inhibitor, single point]"
10,CCc1ccc(S(=O)(=O)/N=C2\C=C(Nc3cccc(C(=O)O)c3)C(=O)c3ccccc32)cc1,inactive
11,C/C(=N/N1CCN(c2ccccn2)CC1)c1ccc([N+](=O)[O-])cc1,"inconclusive: 2.59 µM [inhibitor, full curve]"
12,CCN(CC)C(=O)CSc1nc2ccc(NC(=O)CSc3nnc(COc4ccccc4C)n3C)cc2s1,inactive
13,CC(C)=NO[C@@H](C)CN1CCCc2nc(C)c(C)cc21,inactive
14,CC(NC(=O)CCCC1CCCCC1)c1ccc(S(N)(=O)=O)cc1 (centres undefined),"inconclusive: 6.31 µM [activator, partial curve, poor fit]"
15,COC(=O)c1ccc(Oc2ccc(C(C)(C)C)cc2)c([N+](=O)[O-])c1,inactive
16,Cc1ccccc1OCC(=O)NCC1CCCO1 (centres undefined),inactive
17,CC(C)(C)c1ccc(-c2nc(SCC(=O)Nc3ccc(Cl)cc3)[nH]c(=O)c2C#N)cc1,"inconclusive: 25.1 µM [activator, single point]"
18,CC(Sc1nc(N)c2c3c(sc2n1)CSC(C)(C)C3)C(=O)Nc1ccccc1 (centres undefined),"inconclusive: 35.5 µM [inhibitor, partial curve, poor fit]"
19,COc1nc(-c2ccccc2)ccc1-c1noc(-c2ccco2)n1,inactive
20,Cc1nn2c(NCCN(C)C)c3c(nc2c1-c1ccccc1)CCCC3,active: 10 µM
21,O=C(NN=Cc1ccccc1)c1ccccc1,"inconclusive: 0.562 µM [activator, full curve, poor fit]"
22,CCCCOc1cccc(C(=O)N(Cc2cccs2)c2ccc(OC)cc2)c1,"inconclusive: 25.1 µM [inhibitor, single point]"
